According to the supplement of paper PMC10735217:
The other results are listed elsewhere or left out. Single values are uncertain here, since repeats match poorly.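 In a drug-repurposing library screen, luminescence reads luciferase driven by eight TEAD-binding elements, stably integrated into human kidney-derived cells. Compounds scoring over five robust Z scores above the plate mean are called hits.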

Test system: HEK293A TEAD-LUC reporter
Assay: TEAD-luciferase reporter activity (YAP activation), robust Z score vs plate; higher = stronger YAP/TEAD activation
Conditions: 24 h

CC(=O)Oc1cccc(O)c1 [3-Hydroxyphenyl acetate]
TEAD-luciferase reporter activity (compound concentration: 10 uM): inactive: -0.585

CC(=O)Oc1cccc(O)c1 [Resorcinol (monoacetate)]
TEAD-luciferase reporter activity (compound concentration: 2 uM): inactive: -0.0406

Nc1ccn([C@@H]2C=C(CO)[C@@H](O)[C@H]2O)c(=O)n1
TEAD-luciferase reporter activity (compound concentration: 200 nM): inactive: 0.123
TEAD-luciferase reporter activity (compound concentration: 10 uM): inactive: 0.502

COC[C@H](O)COc1ccc(OCc2cccc(Cl)c2)cc1
TEAD-luciferase reporter activity (compound concentration: 200 nM): inactive: -0.201
TEAD-luciferase reporter activity (compound concentration: 2 uM): inactive: 1.91
TEAD-luciferase reporter activity (compound concentration: 10 uM): inactive: 0.357

COc1cc2c(Nc3ccc(Br)cc3F)ncnc2cc1OCCn1ccnn1
TEAD-luciferase reporter activity (compound concentration: 200 nM): inactive: -1.33
TEAD-luciferase reporter activity (compound concentration: 2 uM): inactive: -2.03
TEAD-luciferase reporter activity (compound concentration: 10 uM): inactive: -2.12

Cc1cc(N2CCOCC2)nc(C)c1NC(=O)OCc1ccccc1
TEAD-luciferase reporter activity (compound concentration: 200 nM): inactive: -1.87
TEAD-luciferase reporter activity (compound concentration: 2 uM): inactive: -0.152
TEAD-luciferase reporter activity (compound concentration: 10 uM): inactive: 0.0153

COc1ccc(CC2SC(=O)NC2=O)cc1C(=O)NCc1ccc(C(F)(F)F)cc1 (stereo not given)
TEAD-luciferase reporter activity (compound concentration: 200 nM): inactive: 4.69
TEAD-luciferase reporter activity (compound concentration: 10 uM): inactive: 0.465

O=c1[nH]cnc2c1ncn2C1OC(CO)C(O)C1O (stereo not given)
TEAD-luciferase reporter activity (compound concentration: 200 nM): inactive: -0.863
TEAD-luciferase reporter activity (compound concentration: 2 uM): inactive: 0.98
TEAD-luciferase reporter activity (compound concentration: 10 uM): inactive: 0.11

Nc1nc2c(ncn2CCC(CO)CO)c(=O)[nH]1 [penciclovir]
TEAD-luciferase reporter activity (compound concentration: 2 uM): inactive: -0.958

Nc1nc2c(ncn2CCC(CO)CO)c(=O)[nH]1
TEAD-luciferase reporter activity (compound concentration: 200 nM): inactive: 2.42
TEAD-luciferase reporter activity (compound concentration: 10 uM): inactive: 0.592

CC#CCn1c(N2CCNCC2)nc2cnn(C)c(=O)c21
TEAD-luciferase reporter activity (compound concentration: 200 nM): inactive: 0.884
TEAD-luciferase reporter activity (compound concentration: 2 uM): inactive: 3.29
TEAD-luciferase reporter activity (compound concentration: 10 uM): inactive: 2.11

NC(=O)/C(=C/n1cnc(-c2cc(C(F)(F)F)cc(C(F)(F)F)c2)n1)c1cncnc1 [Eltanexor]
TEAD-luciferase reporter activity (compound concentration: 200 nM): inactive: -0.26
TEAD-luciferase reporter activity (compound concentration: 2 uM): inactive: -1.73
TEAD-luciferase reporter activity (compound concentration: 10 uM): inactive: -0.925

COc1ccc(Cl)cc1/N=N/c1ncc[nH]1
TEAD-luciferase reporter activity (compound concentration: 200 nM): inactive: 0.407
TEAD-luciferase reporter activity (compound concentration: 2 uM): inactive: -0.215
TEAD-luciferase reporter activity (compound concentration: 10 uM): inactive: 0.276

Cn1c(=O)[nH]c2ccc(S(=O)(=O)Nc3ccc(C(=O)N4CCCC4)cc3)cc2c1=O
TEAD-luciferase reporter activity (compound concentration: 200 nM): inactive: -0.672
TEAD-luciferase reporter activity (compound concentration: 2 uM): inactive: -0.0552
TEAD-luciferase reporter activity (compound concentration: 10 uM): inactive: 0.338

CC1(C)CC(=O)c2c(O)cc(O)cc2O1
TEAD-luciferase reporter activity (compound concentration: 200 nM): inactive: -0.741
TEAD-luciferase reporter activity (compound concentration: 2 uM): inactive: 0.0333
TEAD-luciferase reporter activity (compound concentration: 10 uM): inactive: -1.39

COc1ccc(C(=O)/C(Cc2cccc(N(C)C)c2)=C(\C(=O)[O-])c2ccc3c(c2)OCO3)cc1
TEAD-luciferase reporter activity (compound concentration: 200 nM): inactive: -2.19
TEAD-luciferase reporter activity (compound concentration: 2 uM): inactive: -1.09
TEAD-luciferase reporter activity (compound concentration: 10 uM): inactive: -0.494

C=C(CC(=O)c1ccc(-c2ccccc2Cl)cc1)C(=O)O
TEAD-luciferase reporter activity (compound concentration: 200 nM): inactive: 0.422
TEAD-luciferase reporter activity (compound concentration: 2 uM): inactive: -0.43
TEAD-luciferase reporter activity (compound concentration: 10 uM): inactive: 0.0284

CCN(CC)C(=O)c1cccnc1 [Theramune]
TEAD-luciferase reporter activity (compound concentration: 200 nM): inactive: -0.759
TEAD-luciferase reporter activity (compound concentration: 2 uM): inactive: 0.225
TEAD-luciferase reporter activity (compound concentration: 10 uM): inactive: -0.104

CC1(C)NC(=O)N(c2ccc([N+](=O)[O-])c(C(F)(F)F)c2)C1=O [nilutamide]
TEAD-luciferase reporter activity (compound concentration: 200 nM): inactive: -0.424
TEAD-luciferase reporter activity (compound concentration: 2 uM): inactive: 1.18
TEAD-luciferase reporter activity (compound concentration: 10 uM): inactive: 1.95

Nc1nc(=O)c2c([nH]1)NCC(CNc1ccc(C(=O)N[C@@H](CCC(=O)O)C(=O)O)cc1)N2C=O (stereo not given in full) [Leucovorin Calcium]
TEAD-luciferase reporter activity (compound concentration: 200 nM): inactive: -0.245
TEAD-luciferase reporter activity (compound concentration: 10 uM): inactive: 1.7

NC1=NC2(CCc3cccc(Cl)c3C2)CO1 (stereo not given)
TEAD-luciferase reporter activity (compound concentration: 200 nM): inactive: -0.469
TEAD-luciferase reporter activity (compound concentration: 2 uM): inactive: -0.0624
TEAD-luciferase reporter activity (compound concentration: 10 uM): inactive: 1.6

O=C1NCc2ccccc2CC12CCCN2Cc1ccccc1Br (stereo not given)
TEAD-luciferase reporter activity (compound concentration: 200 nM): inactive: -2.55
TEAD-luciferase reporter activity (compound concentration: 10 uM): active: 12.2

CCc1ccc(CN2CCCC23Cc2ccccc2CNC3=O)cc1 (stereo not given)
TEAD-luciferase reporter activity (compound concentration: 200 nM): inactive: 1.66
TEAD-luciferase reporter activity (compound concentration: 10 uM): inactive: 0.526

C/C(=C\c1ccc(OCCN2CCOCC2)cc1)c1ccc2c(c1)C(C)(C)CCC2(C)C [Mofarotene]
TEAD-luciferase reporter activity (compound concentration: 200 nM): inactive: 0.828
TEAD-luciferase reporter activity (compound concentration: 2 uM): inactive: -1.04
TEAD-luciferase reporter activity (compound concentration: 10 uM): inactive: -1.1

CC(C)CCC[C@@H](C)[C@H]1CC[C@H]2[C@@H]3CCC4(OCCO4)[C@](C)(CCCO)[C@H]3CC[C@]12C
TEAD-luciferase reporter activity (compound concentration: 200 nM): inactive: -1.06
TEAD-luciferase reporter activity (compound concentration: 2 uM): inactive: -0.241
TEAD-luciferase reporter activity (compound concentration: 10 uM): inactive: -1.02

O=C(C1CCCN1C(=O)c1cccc(Cl)c1)N1CCC(c2ccccc2)CC1 (stereo not given)
TEAD-luciferase reporter activity (compound concentration: 200 nM): inactive: -0.431
TEAD-luciferase reporter activity (compound concentration: 10 uM): inactive: -1.48

CC(=O)COC(=O)/C=C(C)/C=C/C=C(C)/C=C/C1=C(C)CCCC1(C)C
TEAD-luciferase reporter activity (compound concentration: 200 nM): inactive: -1.86
TEAD-luciferase reporter activity (compound concentration: 2 uM): inactive: 0.746
TEAD-luciferase reporter activity (compound concentration: 10 uM): inactive: -0.984

CNC(=O)Nc1c(OCCN2CCCCC2)c(OC)c2occc2c1OC [murocainide]
TEAD-luciferase reporter activity (compound concentration: 200 nM): inactive: -0.93
TEAD-luciferase reporter activity (compound concentration: 2 uM): inactive: 0.00103
TEAD-luciferase reporter activity (compound concentration: 10 uM): inactive: -0.942

C[C@H](NC(=O)Cc1ccccc1)C(=O)Nc1ccc(C2S/C(=N\c3cccc(F)c3)N(Cc3ccco3)C2=O)cc1 (stereo not given in full)
TEAD-luciferase reporter activity (compound concentration: 200 nM): inactive: 4.12
TEAD-luciferase reporter activity (compound concentration: 2 uM): inactive: -0.528
TEAD-luciferase reporter activity (compound concentration: 10 uM): inactive: 0.596

CO/N=C(/C(=O)N[C@@H]1C(=O)N2C(C(=O)O)=C(CSc3nnnn3C)CS[C@H]12)c1csc(N)n1 [cefmenoxime]
TEAD-luciferase reporter activity (compound concentration: 200 nM): inactive: -0.263
TEAD-luciferase reporter activity (compound concentration: 2 uM): inactive: -2.18
TEAD-luciferase reporter activity (compound concentration: 10 uM): inactive: 2.25

COc1ccc2c(N3CCc4ccccc4C3)ncnc2c1
TEAD-luciferase reporter activity (compound concentration: 200 nM): inactive: -0.247
TEAD-luciferase reporter activity (compound concentration: 2 uM): inactive: 3.2
TEAD-luciferase reporter activity (compound concentration: 10 uM): inactive: 3.64

NCCCCC(NC(CCc1ccccc1)C(=O)O)C(=O)N1CCCC1C(=O)O (stereo not given) [lisinopril]
TEAD-luciferase reporter activity (compound concentration: 200 nM): inactive: -0.665
TEAD-luciferase reporter activity (compound concentration: 10 uM): inactive: 1.5

FC(F)(F)c1ccc(/C=C/c2nc(COc3ccc(CCCCn4ccnn4)cc3)co2)cc1 [Mubritinib (TAK 165)]
TEAD-luciferase reporter activity (compound concentration: 200 nM): inactive: -1.05
TEAD-luciferase reporter activity (compound concentration: 10 uM): inactive: -2.04

FC(F)(F)c1ccc(/C=C/c2nc(COc3ccc(CCCCn4ccnn4)cc3)co2)cc1 [Mubritinib]
TEAD-luciferase reporter activity (compound concentration: 2 uM): inactive: -2.2

CN1C2CCCC1CC(NC(=O)c1n[nH]c3ccccc13)C2 (stereo not given) [Granisetron impurity B]
TEAD-luciferase reporter activity (compound concentration: 2 uM): inactive: -2.34

CC(=O)O[C@@]12CO[C@@H]1C[C@H](O)[C@@]1(C)C(=O)[C@H](O)C3=C(C)[C@@H](OC(=O)[C@H](O)[C@@H](NC(=O)OC(C)(C)C)c4ccccc4)C[C@@](O)([C@@H](OC(=O)c4ccccc4)C12)C3(C)C (stereo not given in full) [Docetaxel]
TEAD-luciferase reporter activity (compound concentration: 200 nM): inactive: -1.82
TEAD-luciferase reporter activity (compound concentration: 2 uM): inactive: -0.502
TEAD-luciferase reporter activity (compound concentration: 10 uM): inactive: 1.23

CCC(=O)O[C@@H](O[P@](=O)(CCCCc1ccccc1)CC(=O)N1C[C@H](C2CCCCC2)C[C@H]1C(=O)[O-])C(C)C [fosinopril]
TEAD-luciferase reporter activity (compound concentration: 10 uM): inactive: 1.19
